Experimental data published in patent publication EP2025683A1 (INSERM (Institut National de la Santé et de la Recherche …, dated 2009).
No constants are given. Whether binding was seen depends on the method and setting. Some binding calls cover weakened binding; strength is not graded here.

Target: T1, human prolactin receptor (human, UniProt P16471 25-622)
T1 sequence (looked up): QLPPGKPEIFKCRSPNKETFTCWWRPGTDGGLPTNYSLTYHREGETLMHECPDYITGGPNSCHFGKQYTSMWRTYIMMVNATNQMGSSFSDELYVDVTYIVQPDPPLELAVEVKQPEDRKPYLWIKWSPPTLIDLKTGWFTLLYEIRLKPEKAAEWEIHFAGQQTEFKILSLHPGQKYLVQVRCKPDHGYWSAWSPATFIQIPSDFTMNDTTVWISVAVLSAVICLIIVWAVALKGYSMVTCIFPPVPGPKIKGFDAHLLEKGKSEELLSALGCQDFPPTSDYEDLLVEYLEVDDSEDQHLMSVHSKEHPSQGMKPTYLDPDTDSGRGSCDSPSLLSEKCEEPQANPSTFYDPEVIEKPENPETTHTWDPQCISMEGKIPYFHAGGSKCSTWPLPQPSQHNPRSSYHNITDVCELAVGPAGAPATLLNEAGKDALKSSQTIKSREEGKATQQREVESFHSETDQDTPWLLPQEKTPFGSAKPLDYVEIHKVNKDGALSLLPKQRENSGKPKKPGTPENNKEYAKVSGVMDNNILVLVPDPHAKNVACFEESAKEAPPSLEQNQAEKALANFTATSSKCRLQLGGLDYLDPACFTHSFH
Assay: displacement of [125I]-hPRL, homogenates of HEK 293 cells stably expressing hPRLR (HL-5 clone)

B1: G129P-hPRL (ligand, human, UniProt P01236 29-227, looked up)
chain: LPICPGGAARCQVTLRDLFDRAVVLSHYIHNLSSEMFSEFDKRYTHGRGFITKAINSCHTSSLATPEDKEQAQQMNQKDFLSLIVSILRSWNEPLYHLVTEVRGMQEAPEAILSKAVEIEEQTKRLLEPMELIVSQVHPETKENEIYPVWSGLPSLQMADEESRLSAYYNLLHCLRRDSHKIDNYLKLLKCRIIHNNNC
binding: binds
